The list is a part of this screen's results and no random one: it gathers tests that were run many times, whatever their T/C, doses with no T/C, and many T/C values between a quarter and a half above the control. Other doses and runs of a compound stand elsewhere. T/C gives the treated animals as a percentage of the vehicle group. Some doses have a count of surviving animals in place of a T/C: the source holds a T/C of zero for them, seemingly a mark for toxic or unscored doses. Some doses without a T/C left all or most animals alive at the check, yet need not have been tolerated: the source hardly ever lists a survival T/C far under the control, and the zero likely stands for such cases as well. Counts of survivors are from the toxicity check (mostly the fifth day) where no day follows; animals may have died later. Schedule codes are those of the source, taken here to give the interval after Q, in days (D) or hours (H), and the number of doses after X. Some doses were run more than once; the results are listed from low to high. For survival time, the PubChem record calls one and a half times the control and up active, and a quarter to a half above the control has no call in these data; cut-offs in other NCI protocols can differ. Signs of the kind (2×) count equal records among those shown.
Test system: CD2F1 mice, L1210 leukemia ip, survival T/C
Assay: NCI In Vivo Anticancer Drug Screen. Data for tumor model L1210 Leukemia (intraperitoneal) in CD2F1 (CDF1) mice
Conditions: higher T/C = longer survival
Summary of the method: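 Activity against a transplanted murine tumor was judged by comparing the compound group with a vehicle group. The outcome in the treated animals was divided by that in the controls.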

[1] = T/C endpoint: mean survival time, dose: 400.0 mg/kg/injection, schedule: Q01DX001 (ip), vehicle: saline
[2] = T/C endpoint: mean survival time, dose: 200.0 mg/kg/injection, schedule: Q04DX003 (ip), vehicle: saline with Tween-80
[3] = T/C endpoint: mean survival time, dose: 100.0 mg/kg/injection, schedule: Q04DX003 (ip), vehicle: saline with Tween-80
[4] = T/C endpoint: mean survival time, dose: 400.0 mg/kg/injection, schedule: Q04DX003 (ip), vehicle: saline with Tween-80
[5] = T/C endpoint: mean survival time, dose: 200.0 mg/kg/injection, schedule: Q01DX009 (ip), vehicle: saline with Tween-80
[6] = T/C endpoint: mean survival time, dose: 100.0 mg/kg/injection, schedule: Q04DX002 (ip), vehicle: saline with Tween-80
[7] = T/C endpoint: mean survival time, dose: 100.0 mg/kg/injection, schedule: Q01DX009 (ip), vehicle: saline with Tween-80
[8] = T/C endpoint: mean survival time, dose: 400.0 mg/kg/injection, schedule: Q01DX009 (ip), vehicle: saline with Tween-80

O/N=c1/ccn(O)c2ccccc12
T/C (T/C endpoint: mean survival time, dose: 1.0 mg/kg/injection, schedule: Q01DX005 (ip), vehicle: saline): 135 % of control | T/C (T/C endpoint: mean survival time, dose: 1.0 mg/kg/injection, schedule: Q03HX024 (ip), vehicle: saline): 131 % of control | T/C (T/C endpoint: mean survival time, dose: 2.0 mg/kg/injection, schedule: Q01DX005 (ip), vehicle: saline): 141 % of control | T/C (T/C endpoint: mean survival time, dose: 2.0 mg/kg/injection, schedule: Q01DX009 (ip), vehicle: saline): 125 % of control | T/C (T/C endpoint: mean survival time, dose: 2.0 mg/kg/injection, schedule: Q03HX008 (ip), vehicle: saline): 134 % of control | T/C (T/C endpoint: mean survival time, dose: 2.0 mg/kg/injection, schedule: Q03HX016 (ip), vehicle: saline): 134 % of control | T/C (T/C endpoint: mean survival time, dose: 2.0 mg/kg/injection, schedule: Q04DX003 (ip), vehicle: saline): 130 % of control | T/C (T/C endpoint: mean survival time, dose: 4.0 mg/kg/injection, schedule: Q01DX001 (ip), vehicle: saline): 126 % of control | T/C (T/C endpoint: mean survival time, dose: 4.0 mg/kg/injection, schedule: Q01DX005 (ip), vehicle: saline): 142 % of control | T/C (T/C endpoint: mean survival time, dose: 4.0 mg/kg/injection, schedule: Q01DX009 (ip), vehicle: saline): 133 % of control | survivor count (T/C endpoint: mean survival time, dose: 4.0 mg/kg/injection, schedule: Q03HX008 (ip), vehicle: saline): 6 of 10 | survivor count (T/C endpoint: mean survival time, dose: 4.0 mg/kg/injection, schedule: Q03HX016 (ip), vehicle: saline): 8 of 10 | survivor count (T/C endpoint: mean survival time, dose: 4.0 mg/kg/injection, schedule: Q03HX024 (ip), vehicle: saline): 10 of 10 | T/C (T/C endpoint: mean survival time, dose: 4.0 mg/kg/injection, schedule: Q04DX003 (ip), vehicle: saline): 138 % of control | T/C (T/C endpoint: mean survival time, dose: 4.0 mg/kg/injection, schedule: Q08DX002 (ip), vehicle: saline): 128 % of control | T/C (T/C endpoint: mean survival time, dose: 8.0 mg/kg/injection, schedule: Q01DX001 (ip), vehicle: saline): 132 % of control | survivor count (T/C endpoint: mean survival time, dose: 8.0 mg/kg/injection, schedule: Q01DX005 (ip), vehicle: saline): 6 of 10 | survivor count (T/C endpoint: mean survival time, dose: 8.0 mg/kg/injection, schedule: Q01DX009 (ip), vehicle: saline): 8 of 10 | survivor count (T/C endpoint: mean survival time, dose: 8.0 mg/kg/injection, schedule: Q03HX008 (ip), vehicle: saline): 3 of 10 | T/C (T/C endpoint: mean survival time, dose: 8.0 mg/kg/injection, schedule: Q04DX003 (ip), vehicle: saline): 128 % of control | T/C (T/C endpoint: mean survival time, dose: 8.0 mg/kg/injection, schedule: Q08DX002 (ip), vehicle: saline): 137 % of control | survivor count (T/C endpoint: mean survival time, dose: 16.0 mg/kg/injection, schedule: Q01DX005 (ip), vehicle: saline): 5 of 10 | survivor count (T/C endpoint: mean survival time, dose: 32.0 mg/kg/injection, schedule: Q01DX001 (ip), vehicle: saline): 7 of 10 | survivor count (T/C endpoint: mean survival time, dose: 32.0 mg/kg/injection, schedule: Q04DX003 (ip), vehicle: saline): 9 of 10 | survivor count (T/C endpoint: mean survival time, dose: 64.0 mg/kg/injection, schedule: Q01DX001 (ip), vehicle: saline): 4 of 10

CN(C)CCC(=O)c1ccco1
survivor count (T/C endpoint: mean survival time, dose: 200.0 mg/kg/injection, schedule: Q01DX001 (ip), vehicle: saline): 3 of 6 | survivor count [1]: 0 of 6

O=C1N(Cc2ccccc2)CC2C(c3ccccc3)NNC12O (configuration not stated)
survivor count [2]: 6 of 6

Cc1cc(C)c(NC(=O)CC#N)cc1C
T/C [3]: 86 (2×) and 92 % of control | survivor count [3]: 3 of 3 | survivor count [2]: 3 of 3 and 6 of 6 | survivor count [4]: 3 of 3

O=C(CNC(=O)Nc1cccc(C(F)(F)F)c1)N/N=C/c1cc(Br)ccc1O
survivor count [5]: 3 of 3

C[n+]1ccn(Cc2ccc([N+](=O)[O-])cc2)c1
survivor count [1]: 0 of 6

CCN(CC)C(=O)SCCSC(=O)N(CC)CC
survivor count [6]: 3 of 3

C[N+](C)(CC(=O)Nc1ccc(Oc2ccc(Cl)cc2)cc1)Cc1ccccc1
survivor count (T/C endpoint: mean survival time, dose: 100.0 mg/kg/injection, schedule: Q01DX001 (ip), vehicle: Klucel (hydroxypropylcellulose) (HPC)): 0 of 6 | survivor count (T/C endpoint: mean survival time, dose: 200.0 mg/kg/injection, schedule: Q01DX001 (ip), vehicle: Klucel (hydroxypropylcellulose) (HPC)): 0 of 6 | survivor count (T/C endpoint: mean survival time, dose: 400.0 mg/kg/injection, schedule: Q01DX001 (ip), vehicle: Klucel (hydroxypropylcellulose) (HPC)): 0 of 6

Cc1csc2nccc(Cl)c12
survivor count [6]: 2 of 3 | survivor count (T/C endpoint: mean survival time, dose: 200.0 mg/kg/injection, schedule: Q04DX002 (ip), vehicle: saline with Tween-80): 1 of 3 | survivor count (T/C endpoint: mean survival time, dose: 400.0 mg/kg/injection, schedule: Q04DX002 (ip), vehicle: saline with Tween-80): 1 of 3

CCOc1ccc2ccccc2c1C(=O)N(CCCl)CCCl
survivor count (T/C endpoint: mean survival time, dose: 50.0 mg/kg/injection, schedule: Q01DX009 (ip), vehicle: saline with Tween-80): 6 of 6 | survivor count [7]: 5 of 6 | survivor count [5]: 1 of 6 | survivor count [8]: 0 of 6

OCC1OC(n2cnc3c(Cl)ncnc32)C(O)C1O (configuration not stated)
survivor count (T/C endpoint: median survival time, dose: 500.0 mg/kg/injection, schedule: Q01DX009 (ip), vehicle: saline): 6 of 6

COC1OC(CO)C(n2cnc3c2c(=O)n(C)c(=O)n3C)C=C1NC(C)=O (configuration not stated)
survivor count (T/C endpoint: mean survival time, dose: 50.0 mg/kg/injection, schedule: Q01DX005 (ip), vehicle: distilled water + Tween-80): 3 of 3

NC(=S)N/N=C/c1ccc(-c2ccccc2)cc1
survivor count [2]: 4 of 6 | survivor count [4]: 0 of 6

CC1=NCCc2c1cc1c([nH]c3ccccc31)c2C
T/C [7]: 129 % of control | survivor count (T/C endpoint: mean survival time, dose: 150.0 mg/kg/injection, schedule: Q01DX009 (ip), vehicle: saline with Tween-80): 3 of 6

Nc1nc(F)nc2c1ncn2C1OC(COC=O)C(OC=O)C1O (configuration not stated) (tested in a mixture with another compound)
T/C (T/C endpoint: mean survival time, dose: 150.0 mg/kg/injection, schedule: Q01DX005 (ip), vehicle: saline with Tween-80): 140 % of control | survivor count (T/C endpoint: mean survival time, dose: 225.0 mg/kg/injection, schedule: Q01DX009 (ip), vehicle: saline with Tween-80): 2 of 2

[Br][Pt+2][Br].[NH-]CC(=O)O.[NH-]CC(=O)O
survivor count (T/C endpoint: mean survival time, dose: 200.0 mg/kg/injection, schedule: Q01DX009 (ip), vehicle: Klucel (hydroxypropylcellulose) (HPC)): 5 of 5 | survivor count (T/C endpoint: mean survival time, dose: 400.0 mg/kg/injection, schedule: Q04DX003 (ip), vehicle: Klucel (hydroxypropylcellulose) (HPC)): 2 of 6

C[C@@H]1C[C@@]2(C)[C@@H](CC[C@@H]3[C@@H]2CC[C@@]2(C)[C@H]3CC[C@]2(C)O)CC1=O
survivor count [2]: 6 of 6 | survivor count [4]: 5 of 6

C=CCOC(=O)CCCCCCCCC(=O)OCC=C
survivor count [8]: 0 of 6 | survivor count [4]: 6 of 6

C[S+](C)C
survivor count (T/C endpoint: mean survival time, dose: 100.0 mg/kg/injection, schedule: Q01DX009 (ip), vehicle: saline): 0 of 6

O=C(Nc1c(Oc2ccc(Cl)cc2)ccc(Cl)c1S(=O)(=O)O)Nc1c(Oc2ccc(Cl)c(Cl)c2)ccc(Cl)c1S(=O)(=O)O
survivor count [1]: 2 of 6

CN(c1ccccc1)c1ccccc1
survivor count (T/C endpoint: mean survival time, dose: 400.0 mg/kg/injection, schedule: Q01DX001 (ip), vehicle: saline with Tween-80): 5 of 6

CC(C)(C)C(Br)C(=O)O (configuration not stated)
survivor count (T/C endpoint: mean survival time, dose: 300.0 mg/kg/injection, schedule: Q01DX001 (ip), vehicle: saline with Tween-80): 2 of 6

CCN(CC)c1cccc(O)c1
survivor count [5]: 4 of 6

O=C(C#Cc1ccccc1)c1ccccc1
survivor count (T/C endpoint: mean survival time, dose: 50.0 mg/kg/injection, schedule: Q01DX009 (ip), vehicle: Klucel (hydroxypropylcellulose) (HPC)): 2 of 6 | survivor count (T/C endpoint: mean survival time, dose: 100.0 mg/kg/injection, schedule: Q01DX009 (ip), vehicle: Klucel (hydroxypropylcellulose) (HPC)): 0 of 6 and 4 of 6

CCCC(=O)Nc1ccc(N)cc1OC
survivor count (T/C endpoint: mean survival time, dose: 100.0 mg/kg/injection, schedule: Q04DX003 (ip), vehicle: saline sonified): 0 of 6 | survivor count (T/C endpoint: mean survival time, dose: 200.0 mg/kg/injection, schedule: Q04DX003 (ip), vehicle: saline sonified): 0 of 6 | survivor count (T/C endpoint: mean survival time, dose: 400.0 mg/kg/injection, schedule: Q04DX003 (ip), vehicle: saline sonified): 0 of 6

C[n+]1c(/C=N/NC(N)=S)ccc2ccccc21
survivor count (T/C endpoint: median survival time, dose: 200.0 mg/kg/injection, schedule: Q01DX009 (ip), vehicle: saline with Tween-80): 6 of 6

Cc1cc(=O)oc2cc(OC(=O)C(CCCCN)NC(=O)OCc3ccccc3)ccc12 (configuration not stated)
survivor count (T/C endpoint: mean survival time, dose: 200.0 mg/kg/injection, schedule: Q01DX009 (ip), vehicle: other): 2 of 6

OC(CC1=NNC(=S)NC1)(C(F)(F)F)C(F)(F)F
survivor count [5]: 0 of 6
